Values of other authors in US5104859A, “Continuous administration of adenosine to reduce pulmonary vascular resistance” (priority 1990, dated 1992).
At least one structure is not confirmed: it was looked up by name or label, or the drawing left a doubt.

Key:
[1] = system: cardiovascular system; settings: in vivo; cited from earlier work
[2] = system: cardiac output; settings: cited from earlier work
[3] = system: central hemodynamics; settings: data from Lagerkranser; SNP n = 17, TNG n = 20; cited from earlier work

In the case of `O=[N+]([O-])OCC(CO[N+](=O)[O-])O[N+](=O)[O-]` [nitroglycerine], the “onset and predictability of action” value [1] is listed as “slow onset of action and unpredictable action”, the “after-load and pre-load” value ([2]; comparators) is listed as “only a marginal effect on after-load” and the “share of effect on reducing pre-load” value ([2]; in vivo) is listed as 90%. For the same compound, the “HR, change from control” value [3] was “+19 Per Cent from Control”, the “MABP, change from control” value [3] was -36 Per Cent from Control and the “PAP, change from control” value [3] was -34 Per Cent from Control. For the same compound, the “PCWP, change from control” value [3] was -45 Per Cent from Control, the “PVR, change from control” value [3] was “+12 Per Cent from Control” and the “QT (cardiac output), change from control” value [3] was -24 Per Cent from Control. The “RAP, change from control” value [3] was -45 Per Cent from Control and the “SVR, change from control” value [3] was -16 Per Cent from Control.
